PubChem BioAssay AID540256 (National Center for Advancing Translational Sciences (NCATS), 2011)
Screen size: about 300,000 compounds; about 3,700 (1.2%) were called active. Inconclusive means that the source gave no clear call. Such entries were picked first, then a sample of the others. Calls come from the whole dose curve; tested in HEK293 cells. Potencies of inconclusive entries are doubtful fits and often do not repeat.

test: qHTS for Inhibitors of binding or entry into cells for Lassa Virus; conditions: Lassa virus pseudotype entry inhibition, cell reporter; activity change, negative = inhibition: at 37.9 µM (top of the series) unless noted; note: nearly all actives have a fitted effect of over 50% in size
% is set by controls: 0 for no effect and ±100 for the full control effect; potency is the fitted concentration of half-maximal effect.

| Structure (SMILES) | Potency | activity change, negative = inhibition |
| --- | --- | --- |
| Cc1cc(OCC(=O)Nc2ccc(C(=O)OC3CCCCC3)cc2)cc(C)c1Cl | inconclusive: 4.47 µM [activator, full curve, poor fit] | – |
| COc1ccc(CCNCc2c(C(=O)O)c(C)n(Cc3c(F)cccc3Cl)c2C)cc1OC | – | inactive: 8.38% [at 46.1 µM] |
| CCOc1cccc2cc(C(=O)NC(C)c3ccccc3)c(=N)oc12 (stereo unspecified) | inconclusive: 14.1 µM [inhibitor, partial curve, poor fit] | – |
| Cc1cccc2sc(NC(=O)c3cccn(Cc4ccccc4)c3=O)nc12 | inconclusive: 7.08 µM [inhibitor, partial curve, poor fit] | – |
| CC(=O)Nc1ccc2nc(NC(=O)COc3ccccc3Cl)sc2c1 | – | inactive: 17% |
| C/C(=N/NC(=O)CNS(=O)(=O)c1ccccc1)c1ccc(Br)cc1 | – | inactive: 2.85% |
| Cc1cccc(NC(=S)NCCC(C)C)c1 | inconclusive: 18.4 µM [inhibitor, single point] | – |
| CCN(CC)CCCNC(=O)c1ccc2c(=O)n(Cc3ccc4c(c3)OCO4)c(=S)[nH]c2c1 | inconclusive: 31.6 µM [inhibitor, partial curve, poor fit] | – |
| Cc1ccc(NC(=O)c2cc(S(=O)(=O)N3CCCCC3)c[nH]2)cc1N(C)C | – | inactive: 15.5% [at 46.1 µM] |
| O=C(Nc1ccccc1C(=O)Nc1ccccn1)c1ccc([N+](=O)[O-])cc1 | – | inactive: -25.6% |
| CC(=O)Nc1cc(C(=O)NCc2ccccc2Cl)ccc1Sc1ccc(F)cc1 | – | inactive: 29.4% [at 46.1 µM] |
| Cc1ccccc1/C=N/NC(=O)c1sccc1C | – | inactive: -14.4% |
| CSc1ccccc1NC(=O)c1cc(Cl)sc1Cl | inconclusive: 0.282 µM [activator, partial curve, poor fit] | – |
| COCCn1c(SCC(=O)NC2CCCC2)nnc1-c1ccco1 | – | inactive: 2.42% [at 46.1 µM] |
| Cc1cc(C)c(S(=O)(=O)Nc2cc(SCC(=O)O)c(O)c3ccccc23)cc1C | – | inactive: -11.6% |
| C=CCN(C(=O)Cc1cccs1)c1nc(-c2ccc(S(C)(=O)=O)cc2)cs1 | inconclusive: 16.4 µM [inhibitor, single point] | – |
| CN(C)/C=N/NC(=O)c1ccccc1 | – | inactive: 2.21% |
| O=C(Nc1ccccc1)c1ccc(-c2ccc(Br)cc2)o1 | inconclusive: 3.66 µM [activator, single point] | – |
| COc1ccccc1N1CCN(CCN2C(=O)C3CCCN3C2=O)CC1 (stereo unspecified) | – | inactive: 3.01% |
| COc1ccc(C(=O)Nc2cc3c(oc2=O)CCCC3=O)cc1 | inconclusive: 10 µM [activator, partial curve, poor fit] | – |
| COc1ccc2[nH]cc(CCN)c2c1 | inconclusive: 1.46 µM [inhibitor, partial curve, poor fit] | – |
| Cc1sc2ncnc(N3CCN(S(=O)(=O)c4ccc(F)cc4)CC3)c2c1C | inconclusive: 35.5 µM [inhibitor, partial curve, poor fit] | – |

2 of these compounds, reformatted:
O=C(Nc1ccccc1C(=O)Nc1ccccn1)c1ccc([N+](=O)[O-])cc1
  activity change, negative = inhibition: inactive: -25.6%
CN(C)/C=N/NC(=O)c1ccccc1
  activity change, negative = inhibition: inactive: 2.21%

Next part:

| Structure (SMILES) | Potency | activity change, negative = inhibition |
| --- | --- | --- |
| O=C(c1cnn2c(C(F)F)cc(-c3ccccc3)nc12)N1CCc2ccccc2C1 | inconclusive: 11.2 µM [inhibitor, partial curve, poor fit] | – |
| COc1ccc(-c2csc(Nc3ccccn3)n2)cc1OC | inconclusive: 0.708 µM [activator, single point] | – |
| COc1ccc2[nH]c3c(N4CCC(O)(c5cccc(C(F)(F)F)c5)CC4)ncnc3c2c1 | inconclusive: 32.6 µM [inhibitor, single point] | – |
| CCc1ccc(NC(=O)CCCNC(=O)Cn2cnc3sc(C)c(C)c3c2=O)cc1 | inconclusive: 35.5 µM [inhibitor, single point] | – |
| O=C(/C=C\Nc1cccc(F)c1)c1ccc2c(c1)OCO2 | inconclusive: 8.91 µM [inhibitor, partial curve, poor fit] | – |
| Cc1cc(C)c2c(CC(=O)Nc3ccc(F)cc3)coc2c1 | inconclusive: 7.94 µM [inhibitor, partial curve, poor fit] | – |
| Cc1ccc(-n2nc(C)c3nc(CCC(=O)Nc4cccc(C)c4C)c(=O)n(C)c32)cc1 | inconclusive: 31.6 µM [activator, single point] | – |
| CN(C(=O)COC(=O)c1nc(Cl)c(Cl)c(Cl)c1Cl)C1CCS(=O)(=O)C1 (stereo unspecified) | active: 5.62 µM | – |
| CC(=O)Nc1ccc2nc(-c3ccccn3)[nH]c2c1 | inconclusive: 0.126 µM [activator, full curve, poor fit] | – |
| CCOC(=O)c1ccc(NC(=O)CSc2c(C(C)C)cnc3c2c(=O)n(C)c(=O)n3C)cc1 | – | inactive: -11.7% [at 46.1 µM] |
| Cc1ccc(NC(=O)CSc2nnc(CNC(=O)c3ccco3)n2C)c(C)c1 | inconclusive: 0.631 µM [inhibitor, single point] | – |
| Cc1c(CCC(=O)NCCc2ccccc2)c(=O)oc2cc(O)ccc12 | inconclusive: 6.31 µM [activator, partial curve, poor fit] | – |
| CCCN1C2CCCC1CC(NC(=O)c1cccc([N+](=O)[O-])c1)C2 (stereo unspecified) | inconclusive: 1.26 µM [activator, single point] | – |
| CCCCCCN1C[C@H](n2cc(-c3ccc(F)cc3)nn2)[C@@H](O)C[C@H]1c1ccccc1 | inconclusive: 0.705 µM [inhibitor, full curve, poor fit] | – |
| O=C1/C(=C/c2cccnc2)Oc2cc(OS(=O)(=O)c3ccc(Cl)cc3)ccc21 | inconclusive: 8.2 µM [inhibitor, partial curve, poor fit] | – |
| Cc1cc(C)n(-c2ccc(C(=O)Nc3nc4ccccc4s3)cc2)n1 | inconclusive: 1.78 µM [activator, partial curve, poor fit] | – |
| Cc1cc(C)c(OCC(=O)Nc2ccc3c(c2)OCO3)cc1C | inconclusive: 10.3 µM [activator, partial curve] | – |
| COc1cccc(C(C(=O)NC2CCCC2)N(Cc2ccccc2OC)C(=O)c2ccco2)c1 (stereo unspecified) | inconclusive: 10 µM [inhibitor, partial curve, poor fit] | – |
| S=C(NCCc1c[nH]c2ccccc12)NC1CCCCC1 | – | inactive: 1.59% |
| CCn1c(Cc2ccccc2)nnc1SCC(=O)Nc1ccccc1O | inconclusive: 2 µM [inhibitor, partial curve, poor fit] | – |
| Nc1c(N(CCO)C(=O)COc2ccc(Cl)cc2)c(=O)[nH]c(=O)n1Cc1ccccc1 | inconclusive: 8.2 µM [inhibitor, partial curve] | – |
| CCCCn1c(=O)[nH]c(=O)c2c1nc(-c1ccc(C)c([N+](=O)[O-])c1)n2CC | inconclusive: 1.12 µM [inhibitor, full curve, poor fit] | – |

Part of the list above in another layout:
Structure (SMILES) | Potency | activity change, negative = inhibition
Cc1cc(C)c(OCC(=O)Nc2ccc3c(c2)OCO3)cc1C | inconclusive: 10.3 µM [activator, partial curve] | –
COc1cccc(C(C(=O)NC2CCCC2)N(Cc2ccccc2OC)C(=O)c2ccco2)c1 (stereo unspecified) | inconclusive: 10 µM [inhibitor, partial curve, poor fit] | –

Continued.

| Structure (SMILES) | Potency | activity change, negative = inhibition |
| --- | --- | --- |
| CCCCC(C)n1[nH]c(=O)c2c(C)cc(C)nc21 (stereo unspecified) | inconclusive: 31.6 µM [activator, single point] | – |
| COc1ccc(Cl)cc1NC(=O)CNc1ccccc1CN(C)C1CCCCC1 | inconclusive: 11.2 µM [inhibitor, partial curve, poor fit] | – |
| CCOC(=O)/C(C#N)=C/C1=C(N2CCCC2)CC(C)(C)OC1 | – | inactive: -1.75% |
| Cc1ccc2c(c1)C(c1ccccc1)N(C(=O)c1ccccc1F)CC(=O)N2 (stereo unspecified) | inconclusive: 5.62 µM [activator, partial curve, poor fit] | – |
| COc1ccc(/C=C(\NC(=O)c2ccccc2)C(=O)N/N=C/c2sccc2C)cc1 | inconclusive: 5.62 µM [inhibitor, full curve, poor fit] | – |
| CC(C)CN1CCCC(N2CCN(c3cccc(Cl)c3)CC2)C1 (stereo unspecified) | inconclusive: 12.6 µM [activator, single point] | – |
| CC1=C(C(=O)OCc2ccccc2)C(c2ccccc2Br)NC(=O)N1 (stereo unspecified) | inconclusive: 0.794 µM [inhibitor, single point] | – |
| COc1cccc(/C=N/NC(=O)c2cccc3ccccc23)c1 | – | inactive: 10.5% [at 46.1 µM] |
| COc1ccc2ccc3ccc(OC)c(OC(C)=O)c3c2c1 | – | inactive: 5.42% [at 46.1 µM] |
| COCCN=C1Sc2nc3c(C)cccc3cc2CN1Cc1ccco1 | – | inactive: 6.19% |
| COc1cccc(-c2ccc(SCC(=O)N3CCN(c4ccccc4)CC3)nn2)c1 | inconclusive: 12.6 µM [inhibitor, partial curve, poor fit] | – |
| Cc1ccc(NC(=O)CN(C)C(=O)c2ccc(S(=O)(=O)N(C)c3ccccc3)cc2)cc1 | inconclusive: 35.5 µM [inhibitor, single point] | – |
| COc1ccc(O)c(-c2cn[nH]c2-c2cccs2)c1 | – | inactive: -5.79% |
| COc1cc(C2=NOC(C(=O)NCc3cccs3)C2)cc(OC)c1OC (stereo unspecified) | inconclusive: 1.46 µM [inhibitor, full curve, poor fit] | – |
| O=C(Cn1ncc2c3ccccc3n(Cc3ccc(F)cc3)c2c1=O)N1CCC2(CC1)OCCO2 | inconclusive: 14.1 µM [inhibitor, partial curve, poor fit] | – |
| CC(C)(C)Nc1nc(-c2ccc3c(c2)CCN3C(=O)C2CC2)cs1 | inconclusive: 25.1 µM [inhibitor, single point] | – |
| Cc1cc(S(=O)(=O)N(Cc2ccccc2F)C2CC2)ccc1-n1cnnn1 | inconclusive: 11.2 µM [inhibitor, partial curve, poor fit] | – |
| Cc1ccc(N2C(=O)C(NC(=O)c3ccccc3F)(C(F)(F)F)C3=C2CC(C)(C)CC3=O)cc1 (stereo unspecified) | inconclusive: 35.5 µM [activator, single point] | – |
| Nc1nc(SCC(=O)c2c(N)n(C3CC3)c(=O)[nH]c2=O)n[nH]1 | – | inactive: -11.4% |
| CCOC(=O)c1cnc2ccc(OC)cc2c1NCCc1ccc(OC)c(OC)c1 | inconclusive: 12.6 µM [inhibitor, single point] | – |
| O=C(CCc1ccc(O)c(O)c1)NNC(=S)Nc1ccc(Br)cc1Cl | inconclusive: 15.8 µM [inhibitor, partial curve, poor fit] | – |
| O=C(Nc1cc(Cl)ccn1)C1(c2ccccc2)CC1(Cl)Cl (stereo unspecified) | inconclusive: 3.55 µM [inhibitor, partial curve, poor fit] | – |
